This test deals with RalGAPα1 region Val1133 to Pro1754. Kind of test: co-IP; RalA^S28N or RalA^G23V with RalGAPα1 and its regions (interaction region mapping); details in Supplementary Figs. 7 and 8A, B.

Where a chain is given by its changes, count along the chain named. Names may count otherwise. Results are given in words; binding and its absence hold for the method and conditions named. In cells and extracts the contact can be indirect. Binding calls can cover weak binding; strength is not graded here.

B1: RalA^S28N (co-immunoprecipitation with RalGAPα1) (protein, UniProt P11233 1-206)
chain: MAANKPKGQNSLALHKVIMVGSGGVGKNALTLQFMYDEFVEDYEPTKADSYRKKVVLDGEEVQIDILDTAGQEDYAAIRDNYFRSGEGFLCVFSITEMESFAATADFREQILRVKEDENVPFLLVGNKSDLEDKRQVSVEEAKNRAEQWNVNYVETSAKTRANVDKVFFDLMREIRARKMEDSKEKNGKKKRKSLAKRIRERCCIL
Turning to B1, the binding entry is “binds”.

B2: RalA^G23V (co-immunoprecipitation with RalGAPα1) (protein, UniProt P11233 1-206)
chain: B1 chain with G23V, N28S
For the molecule B2, the binding result is “binds”.

(Values after paper PMC9314365.)
